# Test results from the supplement of paper PMC12009310.
# Structures can show the parent of a compound that is named as a salt. ± gives the standard deviation of the averaged measurements. This is one part of the list. Plates or batches differ in their baseline, so values are only roughly comparable.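 The cells are a mouse kidney inner medullary collecting duct line, silenced either for the ciliary gene Rpgrip1l or with a non-targeting control siRNA.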
# What was measured:
# mIMCD3 [1] = experiment: robust z score of cell number vs plate controls; higher = more cells (less cytotoxic); conditions: 10 µM, 48 h
# mIMCD3 [2] = experiment: robust z score of cilia incidence (% cells with single cilium) vs plate controls; higher = more ciliated cells; conditions: 10 µM; 48 h; siRNA: siScr
# mIMCD3 [3] = experiment: robust z score of cilia incidence (% cells with single cilium) vs plate controls; higher = more ciliated cells (rescue of cilia loss); conditions: 10 µM; 48 h; siRNA: siRpgrip1l
Structure (SMILES),robust z score of cell number (mIMCD3 [1]; siRNA: siRpgrip1l),robust z score of cell number (mIMCD3 [1]; siRNA: siScr),robust z score of cilia incidence (mIMCD3 [2]),robust z score of cilia incidence (mIMCD3 [3])
CC(C)C[C@H]1C(=O)N2CCC[C@H]2[C@]2(O)O[C@](NC(=O)[C@@H]3C=C4c5cccc6[nH]c(Br)c(c56)C[C@H]4N(C)C3)(C(C)C)C(=O)N12 [Bromocriptine mesylate],-86.7 ± 75,-54.6 ± 30,-18.1 ± 4.5,-32 ± 17
NCC(CS(=O)(=O)O)c1ccc(Cl)cc1 (configuration not stated) [Saclofen],7.5 ± 12,-2.6 ± 3.8,0.107 ± 2.8,-6.96 ± 3.1
O=C1CSC(c2ccccc2Cl)c2cc(Cl)ccc2N1 (configuration not stated),-13.8 ± 8.2,-1.98 ± 3.7,0.0374 ± 0.67,-15.4 ± 0.56
COc1cc(N)c(Cl)cc1C(=O)NC1CN2CCC1CC2 (configuration not stated) [Zacopride hydrochloride],-0.941 ± 0.75,0.854 ± 4,-3.41 ± 1.2,-16.2 ± 9.6
N=C(NCc1ccc(Cl)cc1)SCCCc1c[nH]cn1 [Clobenpropit dihydrobromide],-7.72 ± 1.3,-7.19 ± 5.3,-1.98 ± 3.3,-16.919 ± 0.0088
Cc1ncc(CN2CC=C(c3ccccc3)CC2)c(N)n1,-2.44 ± 3.8,-5.59 ± 6.6,-13.8 ± 17,-15.8 ± 13
O=C(CCCN1CCC2(CC1)C(=O)NCN2c1ccccc1)c1ccc(F)cc1 [Spiperone hydrochloride],-20.1 ± 0.5,-23.2 ± 11,-33.2 ± 8.1,-23.5 ± 4.3
Oc1ccc2c3c1O[C@H]1c4c(c5ccccc5n4Cc4ccccc4)C[C@@]4(O)C(C2)N(CC2CC2)CC[C@]314 [N-Benzylnaltrindole hydrochloride],-56.3 ± 18,-42.7 ± 6.9,-38 ± 6.1,-34.3 ± 11
CCC[C@@H]1CC2=CC(=O)CC[C@]2(C)[C@H]2CC[C@@]3(C)[C@@H](CC[C@@]3(O)CCC(=O)O)[C@H]12,-14.2 ± 8.9,-13.8 ± 5.6,-39 ± 41,-46.4 ± 24
"Clc1ccc(N2CCN(Cc3c[nH]c4ncccc34)CC2)cc1 [L-745,870 trihydrochloride]",-14.6 ± 0.55,-19 ± 12,-26.2 ± 7.9,-20.8 ± 3.1
N[C@@H]1C[C@H]1c1ccccc1 [Tranylcypromine hydrochloride],-0.666 ± 4.5,-3.4 ± 6.8,-2.41 ± 0.21,-9.89 ± 4.2
Cc1[nH]c2ccc(Cl)cc2c1C1=CCNCC1,-9.17 ± 4.5,-1.97 ± 0.67,-0.025 ± 2.1,-17.2 ± 14
"Cc1cc(C)cc(C(=O)OC2C[C@H]3CC[C@@H](C2)N3C)c1 (some centres not stated) [Tropanyl-3,5-dimethylbenzoate]",-99.2 ± 72,-127 ± 110,-19 ± 2.5,-54.9 ± 6
C[N+]1(C)CCc2cc3c(cc2[C@H]1[C@@H]1OC(=O)c2c1ccc1c2OCO1)OCO3 [(-)-Bicuculline methochloride],0.445 ± 3.8,-10.4 ± 6.3,-10.3 ± 4.6,-10.9 ± 4.4
COc1ccc(C(=O)c2c(C)n(CCN3CCOCC3)c3cc(I)ccc23)cc1,-50 ± 40,-20.1 ± 4.2,-12.3 ± 0.58,-26.2 ± 6.2
Cc1ncsc1CCCl [Chlormethiazole hydrochloride],-2.19 ± 1.4,2.4 ± 4.2,-1.06 ± 4.7,-7.4 ± 2.7
O=[N+]([O-])c1cc(O)c(O)c([N+](=O)[O-])c1,-39.2 ± 34,-20.8 ± 8,-2.49 ± 2,-5.31 ± 0.059
c1ccc2c(c1)OCC(C1=NCCN1)O2 (configuration not stated) [Idazoxan hydrochloride],-30.2 ± 9.7,-22 ± 0.96,-6.9 ± 6.6,-12.3 ± 1.7

# Shown with tabs: two of the compounds above.
Structure (SMILES)	robust z score of cell number (mIMCD3 [1]; siRNA: siRpgrip1l)	robust z score of cell number (mIMCD3 [1]; siRNA: siScr)	robust z score of cilia incidence (mIMCD3 [2])	robust z score of cilia incidence (mIMCD3 [3])
COc1cc(N)c(Cl)cc1C(=O)NC1CN2CCC1CC2 (configuration not stated) [Zacopride hydrochloride]	-0.941 ± 0.75	0.854 ± 4	-3.41 ± 1.2	-16.2 ± 9.6
N=C(NCc1ccc(Cl)cc1)SCCCc1c[nH]cn1 [Clobenpropit dihydrobromide]	-7.72 ± 1.3	-7.19 ± 5.3	-1.98 ± 3.3	-16.919 ± 0.0088
